From the supplement of paper PMC10849652
Some of the results follow.

Protein sequences, listed by entry. Tags and fused reporters are not part of them. Lines headed by an entry give the natural chain unless they say otherwise; changes in a name come on top.
UniProt Q9UKB3: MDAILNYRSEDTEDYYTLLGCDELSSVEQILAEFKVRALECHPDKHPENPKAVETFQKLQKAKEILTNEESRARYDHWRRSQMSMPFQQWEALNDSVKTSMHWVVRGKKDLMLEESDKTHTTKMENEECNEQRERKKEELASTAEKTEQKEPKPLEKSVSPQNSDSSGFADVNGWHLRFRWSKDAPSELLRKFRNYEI
UniProt Q8IXB1: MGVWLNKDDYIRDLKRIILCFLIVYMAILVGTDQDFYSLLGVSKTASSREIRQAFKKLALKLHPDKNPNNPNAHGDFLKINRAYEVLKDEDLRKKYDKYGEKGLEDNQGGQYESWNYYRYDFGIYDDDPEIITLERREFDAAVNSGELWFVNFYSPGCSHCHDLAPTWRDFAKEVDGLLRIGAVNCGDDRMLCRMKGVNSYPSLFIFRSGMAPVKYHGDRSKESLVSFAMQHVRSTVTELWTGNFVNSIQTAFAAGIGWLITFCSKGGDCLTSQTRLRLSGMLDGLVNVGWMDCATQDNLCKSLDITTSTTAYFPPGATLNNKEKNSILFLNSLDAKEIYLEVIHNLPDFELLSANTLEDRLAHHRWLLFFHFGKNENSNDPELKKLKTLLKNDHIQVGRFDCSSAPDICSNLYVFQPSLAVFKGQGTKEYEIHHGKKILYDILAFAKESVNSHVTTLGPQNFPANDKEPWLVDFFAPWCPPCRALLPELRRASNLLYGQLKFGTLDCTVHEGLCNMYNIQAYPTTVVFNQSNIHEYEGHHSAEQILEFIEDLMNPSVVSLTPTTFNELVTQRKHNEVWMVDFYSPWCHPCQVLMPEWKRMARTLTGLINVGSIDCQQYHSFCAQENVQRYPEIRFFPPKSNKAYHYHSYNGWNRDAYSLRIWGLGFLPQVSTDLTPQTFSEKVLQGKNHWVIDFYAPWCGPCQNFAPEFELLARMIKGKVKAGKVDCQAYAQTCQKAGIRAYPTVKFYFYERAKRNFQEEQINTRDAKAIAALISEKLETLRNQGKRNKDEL
UniProt Q7L8W6: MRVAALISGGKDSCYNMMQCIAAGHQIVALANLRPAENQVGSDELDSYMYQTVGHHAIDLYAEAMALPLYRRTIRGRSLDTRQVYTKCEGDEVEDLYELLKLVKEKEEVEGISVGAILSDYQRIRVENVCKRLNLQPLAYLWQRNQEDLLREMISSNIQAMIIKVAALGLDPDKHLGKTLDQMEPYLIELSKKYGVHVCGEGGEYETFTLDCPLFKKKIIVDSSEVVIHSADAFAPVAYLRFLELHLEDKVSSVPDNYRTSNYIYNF
UniProt Q9BZG8: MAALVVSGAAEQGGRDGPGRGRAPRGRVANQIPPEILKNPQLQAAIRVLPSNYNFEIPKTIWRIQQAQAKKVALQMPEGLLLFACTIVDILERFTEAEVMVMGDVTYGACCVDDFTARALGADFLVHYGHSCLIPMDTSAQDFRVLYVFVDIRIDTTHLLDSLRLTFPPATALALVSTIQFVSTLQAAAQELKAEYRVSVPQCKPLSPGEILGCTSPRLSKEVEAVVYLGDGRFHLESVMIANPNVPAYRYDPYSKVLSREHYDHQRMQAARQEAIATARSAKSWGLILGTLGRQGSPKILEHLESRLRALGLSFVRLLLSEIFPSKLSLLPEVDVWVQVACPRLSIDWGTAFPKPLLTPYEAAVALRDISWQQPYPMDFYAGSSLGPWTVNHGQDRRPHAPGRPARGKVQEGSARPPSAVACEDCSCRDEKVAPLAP
UniProt P30084: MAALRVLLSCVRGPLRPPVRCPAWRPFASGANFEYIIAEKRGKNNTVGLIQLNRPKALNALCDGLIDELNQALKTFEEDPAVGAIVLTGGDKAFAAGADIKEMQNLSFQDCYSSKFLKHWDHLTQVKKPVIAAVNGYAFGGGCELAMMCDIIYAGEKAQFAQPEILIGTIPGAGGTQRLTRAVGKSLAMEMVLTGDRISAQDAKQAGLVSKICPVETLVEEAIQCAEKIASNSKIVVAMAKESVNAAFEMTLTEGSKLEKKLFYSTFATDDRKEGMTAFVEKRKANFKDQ
UniProt Q8WWZ3: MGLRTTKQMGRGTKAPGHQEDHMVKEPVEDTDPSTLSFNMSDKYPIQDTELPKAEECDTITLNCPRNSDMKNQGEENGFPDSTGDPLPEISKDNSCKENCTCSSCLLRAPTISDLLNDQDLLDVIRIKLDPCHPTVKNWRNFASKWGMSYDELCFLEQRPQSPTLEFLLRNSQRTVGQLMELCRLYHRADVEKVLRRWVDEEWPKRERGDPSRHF
UniProt Q8TEA8: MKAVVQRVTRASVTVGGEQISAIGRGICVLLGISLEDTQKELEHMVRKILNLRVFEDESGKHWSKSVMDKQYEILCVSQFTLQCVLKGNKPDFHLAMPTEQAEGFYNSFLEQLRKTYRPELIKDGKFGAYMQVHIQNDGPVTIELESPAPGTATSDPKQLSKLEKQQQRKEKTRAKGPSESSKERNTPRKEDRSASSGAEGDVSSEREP
UniProt Q02487, whole entry, looked up: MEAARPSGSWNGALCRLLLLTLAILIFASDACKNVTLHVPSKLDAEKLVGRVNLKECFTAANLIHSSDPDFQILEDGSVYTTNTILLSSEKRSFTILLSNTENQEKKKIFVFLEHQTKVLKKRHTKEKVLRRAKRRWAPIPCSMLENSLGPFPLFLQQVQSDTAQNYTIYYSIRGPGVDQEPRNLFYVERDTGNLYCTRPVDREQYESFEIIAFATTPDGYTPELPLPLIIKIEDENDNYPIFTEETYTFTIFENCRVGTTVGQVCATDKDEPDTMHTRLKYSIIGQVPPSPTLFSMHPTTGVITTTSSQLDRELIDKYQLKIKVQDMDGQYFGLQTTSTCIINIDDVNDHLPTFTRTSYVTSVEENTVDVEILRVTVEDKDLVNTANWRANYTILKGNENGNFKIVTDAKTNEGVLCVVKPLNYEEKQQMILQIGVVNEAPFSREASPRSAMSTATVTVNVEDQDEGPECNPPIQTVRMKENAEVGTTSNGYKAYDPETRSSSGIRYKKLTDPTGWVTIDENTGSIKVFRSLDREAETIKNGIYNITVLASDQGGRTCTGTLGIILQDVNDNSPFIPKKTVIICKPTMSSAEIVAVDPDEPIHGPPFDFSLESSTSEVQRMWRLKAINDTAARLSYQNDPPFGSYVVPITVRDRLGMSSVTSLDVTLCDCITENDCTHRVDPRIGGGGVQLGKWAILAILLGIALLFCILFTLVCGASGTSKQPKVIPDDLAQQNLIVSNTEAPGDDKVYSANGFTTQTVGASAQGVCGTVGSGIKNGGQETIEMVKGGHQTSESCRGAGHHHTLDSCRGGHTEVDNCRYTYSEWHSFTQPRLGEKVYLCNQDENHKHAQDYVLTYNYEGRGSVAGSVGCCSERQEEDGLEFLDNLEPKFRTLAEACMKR
UniProt Q8WXX5: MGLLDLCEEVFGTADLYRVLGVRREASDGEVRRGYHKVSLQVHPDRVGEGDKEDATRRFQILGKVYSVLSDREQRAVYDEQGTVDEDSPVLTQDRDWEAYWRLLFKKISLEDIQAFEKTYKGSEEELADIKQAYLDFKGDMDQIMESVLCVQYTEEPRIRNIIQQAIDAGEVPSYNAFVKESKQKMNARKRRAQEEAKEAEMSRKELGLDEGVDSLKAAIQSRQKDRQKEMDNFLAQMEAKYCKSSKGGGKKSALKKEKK
UniProt P42892: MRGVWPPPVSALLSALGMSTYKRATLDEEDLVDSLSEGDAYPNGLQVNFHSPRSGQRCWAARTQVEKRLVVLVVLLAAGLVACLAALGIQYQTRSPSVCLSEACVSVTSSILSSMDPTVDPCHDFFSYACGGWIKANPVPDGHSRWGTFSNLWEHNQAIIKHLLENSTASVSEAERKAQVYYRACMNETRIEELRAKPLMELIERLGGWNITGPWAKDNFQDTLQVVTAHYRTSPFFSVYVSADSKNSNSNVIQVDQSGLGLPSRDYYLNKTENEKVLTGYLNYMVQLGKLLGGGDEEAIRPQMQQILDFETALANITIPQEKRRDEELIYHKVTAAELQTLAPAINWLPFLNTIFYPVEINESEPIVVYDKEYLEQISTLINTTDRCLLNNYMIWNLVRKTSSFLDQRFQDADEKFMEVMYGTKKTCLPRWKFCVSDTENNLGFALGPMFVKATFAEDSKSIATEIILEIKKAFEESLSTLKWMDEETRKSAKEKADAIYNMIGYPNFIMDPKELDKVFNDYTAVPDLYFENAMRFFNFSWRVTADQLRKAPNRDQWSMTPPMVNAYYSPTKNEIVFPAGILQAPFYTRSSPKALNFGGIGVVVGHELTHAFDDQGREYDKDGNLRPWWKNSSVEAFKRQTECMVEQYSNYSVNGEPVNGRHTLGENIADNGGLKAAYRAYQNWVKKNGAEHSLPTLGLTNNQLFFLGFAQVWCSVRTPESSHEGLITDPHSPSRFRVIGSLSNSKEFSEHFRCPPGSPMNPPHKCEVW
UniProt Q9BQC3: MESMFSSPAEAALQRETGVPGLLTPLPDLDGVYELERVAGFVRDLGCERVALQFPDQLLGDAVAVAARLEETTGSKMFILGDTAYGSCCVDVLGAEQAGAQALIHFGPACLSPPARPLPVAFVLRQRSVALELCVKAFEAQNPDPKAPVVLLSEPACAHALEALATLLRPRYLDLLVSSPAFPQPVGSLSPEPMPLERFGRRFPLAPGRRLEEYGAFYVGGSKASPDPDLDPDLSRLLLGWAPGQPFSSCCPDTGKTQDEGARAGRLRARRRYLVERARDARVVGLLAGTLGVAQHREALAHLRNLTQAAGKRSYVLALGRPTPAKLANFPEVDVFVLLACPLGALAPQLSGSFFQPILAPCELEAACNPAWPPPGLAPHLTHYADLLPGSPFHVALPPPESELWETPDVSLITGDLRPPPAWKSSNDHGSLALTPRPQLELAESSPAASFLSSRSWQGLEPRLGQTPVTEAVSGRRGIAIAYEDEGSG
UniProt P60981: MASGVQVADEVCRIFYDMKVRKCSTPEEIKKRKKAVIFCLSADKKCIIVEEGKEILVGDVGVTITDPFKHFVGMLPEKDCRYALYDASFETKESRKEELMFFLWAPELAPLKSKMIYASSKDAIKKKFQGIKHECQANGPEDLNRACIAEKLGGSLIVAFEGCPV
UniProt O60869: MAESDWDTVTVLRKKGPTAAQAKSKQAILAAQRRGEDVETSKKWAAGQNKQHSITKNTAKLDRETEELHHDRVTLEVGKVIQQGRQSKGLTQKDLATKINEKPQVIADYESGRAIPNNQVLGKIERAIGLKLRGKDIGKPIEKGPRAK
UniProt Q9NVH1: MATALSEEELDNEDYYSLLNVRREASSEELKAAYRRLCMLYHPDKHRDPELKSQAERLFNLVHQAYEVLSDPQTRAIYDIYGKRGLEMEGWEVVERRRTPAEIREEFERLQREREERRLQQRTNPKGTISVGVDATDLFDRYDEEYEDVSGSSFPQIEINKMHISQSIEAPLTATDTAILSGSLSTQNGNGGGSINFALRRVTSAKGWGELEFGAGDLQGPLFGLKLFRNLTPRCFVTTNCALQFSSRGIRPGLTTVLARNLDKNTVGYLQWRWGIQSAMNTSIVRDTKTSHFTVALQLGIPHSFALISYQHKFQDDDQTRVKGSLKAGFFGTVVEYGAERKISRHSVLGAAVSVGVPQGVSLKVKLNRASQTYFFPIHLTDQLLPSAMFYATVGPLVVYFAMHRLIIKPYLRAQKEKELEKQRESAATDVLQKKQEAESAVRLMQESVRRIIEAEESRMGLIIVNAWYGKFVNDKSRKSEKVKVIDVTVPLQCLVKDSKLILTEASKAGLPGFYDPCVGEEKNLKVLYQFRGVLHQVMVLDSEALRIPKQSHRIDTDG
UniProt Q01658: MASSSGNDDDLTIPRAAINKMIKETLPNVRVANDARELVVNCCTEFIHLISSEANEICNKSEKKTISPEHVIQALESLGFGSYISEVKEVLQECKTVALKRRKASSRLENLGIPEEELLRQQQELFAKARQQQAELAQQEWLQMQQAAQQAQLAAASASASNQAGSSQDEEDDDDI
UniProt O75937: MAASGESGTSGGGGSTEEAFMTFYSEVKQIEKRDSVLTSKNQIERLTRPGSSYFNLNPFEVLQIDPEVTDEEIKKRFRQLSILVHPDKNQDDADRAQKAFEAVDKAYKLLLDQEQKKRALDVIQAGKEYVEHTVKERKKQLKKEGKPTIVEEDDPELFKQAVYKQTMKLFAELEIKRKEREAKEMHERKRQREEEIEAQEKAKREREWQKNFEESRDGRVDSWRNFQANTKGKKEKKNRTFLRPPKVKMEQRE
UniProt Q9UBS4: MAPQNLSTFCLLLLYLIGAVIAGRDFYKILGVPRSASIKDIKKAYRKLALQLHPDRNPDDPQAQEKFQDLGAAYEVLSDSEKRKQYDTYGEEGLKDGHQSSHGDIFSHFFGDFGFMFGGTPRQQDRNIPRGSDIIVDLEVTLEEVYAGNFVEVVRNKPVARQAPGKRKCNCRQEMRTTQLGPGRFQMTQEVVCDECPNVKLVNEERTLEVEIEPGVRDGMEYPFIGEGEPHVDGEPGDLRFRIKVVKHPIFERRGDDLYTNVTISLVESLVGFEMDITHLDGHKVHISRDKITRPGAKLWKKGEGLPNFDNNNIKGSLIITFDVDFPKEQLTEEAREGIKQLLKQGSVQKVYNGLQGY

Compound: Cc1ccc(C(=O)N(CCCN)[C@@H](c2nc3cc(Cl)ccc3c(=O)n2Cc2ccccc2)C(C)C)cc1 [ispinesib]
Assay: log2 fold change, soluble protein after heating vs DMSO (PISA); higher = thermal stabilisation; K562 cells, 10 uM, 30 min; active = over 0.2 and 3.5 SD of the protein, either way, in both replicates (recomputed)
Outline: (§1)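 K562 cells at 2×10^6 cells/mL were exposed to 10 μM compound for 30 min, then aliquots were heated for 3 min across 48°C-58°C, pooled, and extracted in PBS containing 0.5% NP-40 at 4°C. The supernatant after 21,000xg for 90 min was taken as soluble protein and measured by TMTpro 16plex LC-MS/MS with channel sums equalised. Thermal stability is reported relative to control samples, with values from duplicates. Fold changes are given on a log2 scale.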

| Target | log2 fold change |
| --- | --- |
| DNAJC12 (UniProt Q9UKB3) | inactive: 0.097 |
| DNAJC10 (UniProt Q8IXB1) | inactive: 0.044 |
| DPH6 (UniProt Q7L8W6) | inactive: -0.081 |
| DPH1 (UniProt Q9BZG8) | inactive: 0.046 |
| DPP7 (UniProt Q9UHL4) | inactive: 0.078 |
| ECHS1 (UniProt P30084) | inactive: 0.161 |
| EDARADD (UniProt Q8WWZ3) | inactive: 0.027 |
| DTD1 (UniProt Q8TEA8) | inactive: 0.071 |
| DSC2 (UniProt Q02487) | inactive: 0.062 |

Compound: Cc1ccc(NC(=O)c2ccc(CN3CC[C@H](N(C)C)C3)c(C(F)(F)F)c2)cc1Nc1nccc(-c2cncnc2)n1 [bafetinib]
Assay: as above
Outline: as §1

| Target | log2 fold change |
| --- | --- |
| DNAJC9 (UniProt Q8WXX5) | inactive: -0.087 |
| ECI1 (UniProt P42126) | inactive: -0.033 |
| ECE1 (UniProt P42892) | inactive: -0.244 |
| DNAJB4 (UniProt Q9UDY4) | inactive: -0.023 |
| DNAJC17 (UniProt Q9NVM6) | inactive: -0.11 |
| DPH2 (UniProt Q9BQC3) | inactive: -0.048 |
| EDEM3 (UniProt Q9BZQ6) | inactive: 0.048 |
| DSTN (UniProt P60981) | inactive: -0.026 |
| DNAJC3 (UniProt Q13217) | inactive: 0.001 |
| DOCK11 (UniProt Q5JSL3) | inactive: 0.004 |
| DSG2 (UniProt Q14126) | inactive: -0.008 |
| EDF1 (UniProt O60869) | inactive: -0.03 |
| DNAJC11 (UniProt Q9NVH1) | inactive: -0.013 |
| DPH7 (UniProt Q9BTV6) | inactive: -0.065 |
| DNAJA3 (UniProt Q96EY1) | inactive: -0.012 |
| DUSP23 (UniProt Q9BVJ7) | inactive: -0.007 |
| DST (UniProt Q03001) | inactive: -0.3 |

| Target | log2 fold change |
| --- | --- |
| DR1 (UniProt Q01658) | inactive: 0.028 |
| EBAG9 isoform 2 (UniProt O00559) | inactive: -0.046 |
| DNAJC8 (UniProt O75937) | inactive: 0 |
| DNAJB11 (UniProt Q9UBS4) | inactive: -0.063 |
| DUT (UniProt P33316) | inactive: -0.046 |
| DTL (UniProt Q9NZJ0) | inactive: 0.117 |
| DRAP1 isoform 2 (UniProt Q14919) | inactive: -0.078 |
| DNAJC12 (UniProt Q9UKB3) | inactive: -0.069 |
| DNAJC10 (UniProt Q8IXB1) | inactive: 0.05 |
| DPH6 (UniProt Q7L8W6) | inactive: -0.032 |
| DPH1 (UniProt Q9BZG8) | inactive: -0.021 |
| DPP7 (UniProt Q9UHL4) | inactive: -0.13 |
| ECHS1 (UniProt P30084) | inactive: 0.051 |
| EDARADD (UniProt Q8WWZ3) | inactive: -0.089 |
| DTD1 (UniProt Q8TEA8) | inactive: -0.035 |
| DSC2 (UniProt Q02487) | inactive: -0.122 |

Compound: Cc1cccc(CC(=O)N2CCc3c2ccc(-c2cn(C)c4ncnc(N)c24)c3F)n1
Assay: as above
Outline: as §1

| Target | log2 fold change |
| --- | --- |
| DNAJC9 (UniProt Q8WXX5) | inactive: -0.035 |
| ECI1 (UniProt P42126) | inactive: -0.092 |
| ECE1 (UniProt P42892) | inactive: 0.086 |
| DNAJB4 (UniProt Q9UDY4) | inactive: 0.046 |
| DNAJC17 (UniProt Q9NVM6) | inactive: 0.011 |
| DPH2 (UniProt Q9BQC3) | inactive: -0.005 |
| EDEM3 (UniProt Q9BZQ6) | inactive: 0.017 |
| DSTN (UniProt P60981) | inactive: -0.013 |
| DNAJC3 (UniProt Q13217) | inactive: 0.002 |
| DOCK11 (UniProt Q5JSL3) | inactive: 0.02 |
| DSG2 (UniProt Q14126) | inactive: -0.012 |
| EDF1 (UniProt O60869) | inactive: -0.012 |
| DNAJC11 (UniProt Q9NVH1) | inactive: 0.034 |
| DPH7 (UniProt Q9BTV6) | inactive: -0.004 |
| DNAJA3 (UniProt Q96EY1) | inactive: -0.041 |
| DUSP23 (UniProt Q9BVJ7) | inactive: 0.059 |
| DST (UniProt Q03001) | inactive: 0.014 |

| Target | log2 fold change |
| --- | --- |
| DR1 (UniProt Q01658) | inactive: 0.039 |
| EBAG9 isoform 2 (UniProt O00559) | inactive: -0.109 |
| DNAJC8 (UniProt O75937) | inactive: 0.043 |
| DNAJB11 (UniProt Q9UBS4) | inactive: -0.088 |
| DUT (UniProt P33316) | inactive: -0.005 |
| DTL (UniProt Q9NZJ0) | inactive: -0.072 |
| DRAP1 isoform 2 (UniProt Q14919) | inactive: -0.021 |
| DNAJC12 (UniProt Q9UKB3) | inactive: 0.006 |
| DNAJC10 (UniProt Q8IXB1) | inactive: 0.019 |
| DPH6 (UniProt Q7L8W6) | inactive: 0.168 |
| DPH1 (UniProt Q9BZG8) | inactive: 0.057 |
| DPP7 (UniProt Q9UHL4) | inactive: -0.02 |
| ECHS1 (UniProt P30084) | inactive: 0.014 |
| EDARADD (UniProt Q8WWZ3) | inactive: -0.044 |
| DTD1 (UniProt Q8TEA8) | inactive: 0.202 |
| DSC2 (UniProt Q02487) | inactive: -0.143 |
